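A panel of P. falciparum strains inside erythrocytes is exposed to compounds for three days, then a DNA-binding dye reports the amount of parasite DNA. Each compound was titrated across a series from about 0.000037 to 29 µM. The number is the fitted AC50, the concentration giving a half-maximal change in signal; a lower value means higher potency, whether the curve shows a decrease or an increase. Calls follow the curve class and fit quality: every row here is inconclusive, covering signal-raising curves and weak, poorly fitted, partial or highest-dose-only inhibition curves.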

Values are in nM. Every entry below has the call inconclusive. These entries are mostly ones the record files as inconclusive; other results of the assay are not listed here. Potencies fitted to partial, single-point or poorly fitting curves are rough.

SMILES,setting,Potency (nM),curve
CC(C)=CCC1C(=O)N(c2ccccc2)N(c2ccccc2)C1=O,SC27B,17782,"inhibitor, single point"
CC(C)=CCC1C(=O)N(c2ccccc2)N(c2ccccc2)C1=O,CP269,19011,"inhibitor, single point"
CC(C)=CCC1C(=O)N(c2ccccc2)N(c2ccccc2)C1=O,AA1029,10000,"inhibitor, single point"
CC(C)=CCC1C(=O)N(c2ccccc2)N(c2ccccc2)C1=O,CP260,15848,"inhibitor, single point"
CC(C)=CCC1C(=O)N(c2ccccc2)N(c2ccccc2)C1=O,CP191,11220,"inhibitor, single point"
CC(C)=CCC1C(=O)N(c2ccccc2)N(c2ccccc2)C1=O,Dd2,19952,"inhibitor, single point"
CC(C)=CCC1C(=O)N(c2ccccc2)N(c2ccccc2)C1=O,CP252,17782,"inhibitor, single point"
CC(C)=CCC1C(=O)N(c2ccccc2)N(c2ccccc2)C1=O,CP329,13459,"inhibitor, single point"
CC(C)=CCC1C(=O)N(c2ccccc2)N(c2ccccc2)C1=O,ECU,17782,"inhibitor, single point"
CC(C)=CCC1C(=O)N(c2ccccc2)N(c2ccccc2)C1=O,CP185,17782,"inhibitor, single point"
CC(C)=CCC1C(=O)N(c2ccccc2)N(c2ccccc2)C1=O,TAB113,15848,"inhibitor, partial curve, poor fit"
CC(C)=CCC1C(=O)N(c2ccccc2)N(c2ccccc2)C1=O,DFO2036,17782,"inhibitor, single point"
CC(C)=CCC1C(=O)N(c2ccccc2)N(c2ccccc2)C1=O,ICS,10000,"inhibitor, single point"
CC(C)=CCC1C(=O)N(c2ccccc2)N(c2ccccc2)C1=O,HB3,14125,"inhibitor, single point"
CC(C)=CCC1C(=O)N(c2ccccc2)N(c2ccccc2)C1=O,GB4,19011,"inhibitor, single point"
CC(C)=CCC1C(=O)N(c2ccccc2)N(c2ccccc2)C1=O,DIV14,6012,"inhibitor, partial curve, poor fit"
CC(C)=CCC1C(=O)N(c2ccccc2)N(c2ccccc2)C1=O,CP325,13459,"inhibitor, single point"
CC(C)=CCC1C(=O)N(c2ccccc2)N(c2ccccc2)C1=O,PC26,15101,"inhibitor, partial curve, poor fit"
CC(C)=CCC1C(=O)N(c2ccccc2)N(c2ccccc2)C1=O,CP194,11995,"inhibitor, partial curve, poor fit"
CC(C)=CCC1C(=O)N(c2ccccc2)N(c2ccccc2)C1=O,N140,19952,"inhibitor, single point"
CC(C)=CCC1C(=O)N(c2ccccc2)N(c2ccccc2)C1=O,CP305,16944,"inhibitor, partial curve, poor fit"
CC(C)=CCC1C(=O)N(c2ccccc2)N(c2ccccc2)C1=O,CP250,12589,"inhibitor, single point"
CC(C)=CCC1C(=O)N(c2ccccc2)N(c2ccccc2)C1=O,CP286,17782,"inhibitor, single point"
CC(C)=CCC1C(=O)N(c2ccccc2)N(c2ccccc2)C1=O,CP211,7569,"inhibitor, partial curve, poor fit"
CC(C)=CCC1C(=O)N(c2ccccc2)N(c2ccccc2)C1=O,ATS95,10000,"inhibitor, single point"
CC(C)=CCC1C(=O)N(c2ccccc2)N(c2ccccc2)C1=O,PAD,12589,"inhibitor, single point"
CC(C)=CCC1C(=O)N(c2ccccc2)N(c2ccccc2)C1=O,CP217,17782,"inhibitor, single point"
CC(C)=CCC1C(=O)N(c2ccccc2)N(c2ccccc2)C1=O,TAB165,17782,"inhibitor, single point"
CC(C)=CCC1C(=O)N(c2ccccc2)N(c2ccccc2)C1=O,ATS189,10000,"inhibitor, single point"
CC(C)=CCC1C(=O)N(c2ccccc2)N(c2ccccc2)C1=O,P94_40,11220,"inhibitor, single point"
CC(C)=CCC1C(=O)N(c2ccccc2)N(c2ccccc2)C1=O,AS120,17782,"inhibitor, single point"
CC(C)=CCC1C(=O)N(c2ccccc2)N(c2ccccc2)C1=O,7G8,14125,"inhibitor, partial curve, poor fit"
CC(C)=CCC1C(=O)N(c2ccccc2)N(c2ccccc2)C1=O,DIV30,11995,"inhibitor, single point"
CC(C)=CCC1C(=O)N(c2ccccc2)N(c2ccccc2)C1=O,CP297,13459,"inhibitor, single point"
CC(C)=CCC1C(=O)N(c2ccccc2)N(c2ccccc2)C1=O,DIV17,19011,"inhibitor, partial curve, poor fit"
CC(C)=CCC1C(=O)N(c2ccccc2)N(c2ccccc2)C1=O,CP291,11995,"inhibitor, single point"
CC(C)=CCC1C(=O)N(c2ccccc2)N(c2ccccc2)C1=O,CP203,16944,"inhibitor, partial curve, poor fit"
Nc1ccc(S(=O)(=O)Nc2ccccn2)cc1,ATS95,10000,"inhibitor, single point"
Nc1ccc(S(=O)(=O)Nc2ccccn2)cc1,P93_24,1585,"inhibitor, single point"
Nc1ccc(S(=O)(=O)Nc2ccccn2)cc1,P94_40,10000,"inhibitor, single point"

Some entries from above, unchanged:

* CC(C)=CCC1C(=O)N(c2ccccc2)N(c2ccccc2)C1=O [TAB165] | Potency 17782 nM (inhibitor, single point)
* Nc1ccc(S(=O)(=O)Nc2ccccn2)cc1 [P94_40] | Potency 10000 nM (inhibitor, single point)
* CC(C)=CCC1C(=O)N(c2ccccc2)N(c2ccccc2)C1=O [SC27B] | Potency 17782 nM (inhibitor, single point)
* CC(C)=CCC1C(=O)N(c2ccccc2)N(c2ccccc2)C1=O [PC26] | Potency 15101 nM (inhibitor, partial curve, poor fit)
* CC(C)=CCC1C(=O)N(c2ccccc2)N(c2ccccc2)C1=O [CP260] | Potency 15848 nM (inhibitor, single point)

Source: PubChem BioAssay AID504749 (NCATS, 2011).